Laboratory results: the supplement of paper PMC5949888
Most values lie at the floor of the assay. Slopes are relative: functional sequences can read slightly below zero.

Each substance was assayed on Saccharomyces cerevisiae PS128 hsf1 delta, HSF1(1-493) fusion (assay: growth estimate (transactivation domain function in HSF1 fusion, heat-shock survival) (a.u. (slope of normalised read count over time)); higher = stronger growth at 37°C, i.e. more transactivation activity). Settings: library: random library.

Substance | growth estimate
KVGEGKCQGFTPRESYNDEK | < -0.25
KVGG | < -0.25
KVGGARCSHKQAP | < -0.25
KVGRR | < -0.25
KVHD | < -0.25
KVILVAFCNERCVRSIHLYR | -0.216
KVINR | < -0.25
KVIPPQTLQDPGEMGTHERT | < -0.25
KVKDGSSAEKVNYWVANLPP | < -0.25
KVLRKARRVVGETKPRL | < -0.25
KVPARGDRSIGDESSPLLRR | < -0.25
KVQ | < -0.25
KVRGKARFLKAENVTNGEVR | < -0.25
KVRSAPRIHGSSFLSVAVSS | < -0.25
KVRVPRLFSRRNIRA | < -0.25
KVSAGGVCHPACNIGPAFQG | < -0.25
KVSLVALGTVGQCRLPRLDN | < -0.25
KVSPLSRSVRYPLGSGARKV | < -0.25
KVSYIQSLTLIPVRL | < -0.25
KVTPELSAVVAGPSDKALRL | < -0.25
KVVQLAQCVNYRTSFRGALG | < -0.25
KVYHCDRLIATLPSVERRH | < -0.25
KVYPNGWRFPGENRRHGRRP | < -0.25
KWGHYHRL | < -0.25
KWLFL | < -0.25

Copied from the list:
growth estimate with KWLFL is entered as < -0.25
growth estimate with KVLRKARRVVGETKPRL is entered as < -0.25
growth estimate with KVGRR is entered as < -0.25

Reformatted: entries from further up
Substance,growth estimate
KVSAGGVCHPACNIGPAFQG,< -0.25
KVSLVALGTVGQCRLPRLDN,< -0.25

(further entries)

Substance | growth estimate
KWLQSVARAEKEVGLNARKM | < -0.25
KWSAATEPTVIRYLKGDE | < -0.25
KWTMGTRQPVLSGDGSPQRV | < -0.25
KWYLQSI | < -0.25
KYAAVQRRE | < -0.25
KYALLGNS | < -0.25
KYASAWGTGYSVRSP | < -0.25
KYCIVYSGRDSSSPFRLGET | < -0.25
KYLCGRFVIRTIGDWVVFRQ | < -0.25
KYSAPTRWHPKLPRFNNAPS | < -0.25
KYTYAFTLSVRGLVD | < -0.25
KYYLADLR | < -0.25
LAALL | < -0.25
LACA | < -0.25
LACDRSSDRLPVEPRSSVRG | < -0.25
LAE | < -0.25
LAEMKESRFGISSCTW | < -0.25
LAEPLGIECEPSCSIVKTIH | -0.198
LAETSMLFAVVGARGACASD | < -0.25
LAFG | < -0.25
LAFGPVGVKRWPRLPREVGP | < -0.25
LAFNSYAF | < -0.25
LAGDLSGT | < -0.25
LAGQWLFASMRLPGGKRGQP | < -0.25
LAGRD | < -0.25

Substance | growth estimate
LAIFVKEPTLTIRTARLRAG | < -0.25
LAIRYVDRKTRDKPLWLNLR | < -0.25
LAKKVLPTEMQASTGRGCSK | < -0.25
LAKSWANSVSR | < -0.25
LALDTRCASALWHGRL | < -0.25
LALGGGLT | < -0.25
LALGKLAWLSIGIRGSGSGR | < -0.25
LALGPYGSCDVNYRFCECST | < -0.25
LALKGAERSPDL | < -0.25
LALLPEAPVYVGMVGVEVNS | < -0.25
LALRFSEGLFGQEV | < -0.25
LALTLGLEVKVALGTYGV | -0.25
LAMYTFLWTAVLLHELGNKV | < -0.25
LANTVEA | < -0.25
LAPALGRDARRNGGGL | < -0.25
LAPEHGFESVKERGRPMHFV | -0.228
LAPPWDHRLPWR | -0.149
LAPVINREISANRQVARGLD | < -0.25
LAPYIADFCSG | < -0.25
LAQGDGGHSRRVRRQPAG | < -0.25
LAQVRVTQVIM | < -0.25
LARFRENSNDWLLFTETQ | < -0.25
LARIFSRVP | 0.0282
LARPSRTGMTSQWKSIKTQC | < -0.25
LARYIRFYVLYVTVT | < -0.25

Substance | growth estimate
LASLIASLPWCRVLAIKPWA | < -0.25
LASME | < -0.25
LASNPCPTQMGLARVRAIHS | < -0.25
LASRVRPLWGYVTFKIERWE | < -0.25
LASWGIVIVINETRLRPLST | < -0.25
LASYANSFHGTYLPFRFPP | < -0.25
LATCILVSEA | < -0.25
LATEM | < -0.25
LATGL | < -0.25
LATSG | < -0.25
LAV | < -0.25
LAVGGRLAISASLSALLGRP | -0.243
LAVKTAYKLMPLLATIRFSA | < -0.25
LAVLFNRSTIAWASECEITI | < -0.25
LAWLKSRAVRGFGLTETPLQ | < -0.25
LAYCQPVNQGISG | -0.229
LAYKARSVGILSCNRIIRMV | < -0.25
LCAELPHGSTGDHPRQ | < -0.25
LCALRSLIHTLTRSNRAMPE | < -0.25
LCARNDRLAPRHTVTPYAVR | < -0.25
LCCLRR | < -0.25
LCDQVSAI | < -0.25
LCDYKNQSAEMLLCREW | < -0.25
LCEAMKCQNLRTGVTFNPRH | < -0.25
LCEHHRAYTFRVYDQMFWRY | < -0.25

Substance | growth estimate
LCEPKFFEDF | < -0.25
LCFHNTSIYVAR | -0.245
LCGANRGVPWGHLRR | < -0.25
LCGDIKCRTDVV | -0.222
LCGLGRGIQRHAPL | < -0.25
LCHSRQNCHIHAAWLQ | < -0.25
LCIRKSFQVHVGMTTCSLSR | < -0.25
LCKPCGHLLVSQV | < -0.25
LCLGSGGKENKMTIPWNQTT | < -0.25
LCMVINVTQMGRQWEAVRAI | < -0.25
LCPEPQFSLWTS | < -0.25
LCPIGCPVGISGPSS | < -0.25
LCPKTPVFGHRSYLREARGD | < -0.25
LCPV | < -0.25
LCQGMGKPGTA | < -0.25
LCQSYRWVANYRRICLWGGL | < -0.25
LCQVCAFLRWILSC | < -0.25
LCRSGIYGSRLCTSLSSQMP | < -0.25
LCSIKRSIIRLKGRD | < -0.25
LCSV | < -0.25
LCTGRWTHRST | < -0.25
LCTTQRPAKRELTAGKSVHS | < -0.25
LCVARRSILRSEAVS | < -0.25
LCVIWQWPFQYSRSLVLLLS | < -0.25
LCVQLDDDIALYVGNMVRPL | < -0.25

Substance | growth estimate
LCYR | -0.156
LDALGVRTRKAAAND | < -0.25
LDAYRWATLFVLGRTISKLV | < -0.25
LDCWVRRDNLLIRPWVNRFS | < -0.25
LDDGIDATLEDRVSSPWLAE | -0.0911
LDDRRVWQFWLKMTWRRTVL | < -0.25
LDEMLRRQHAYVCVIASWFK | < -0.25
LDESQLRGPRDATASGSQQG | < -0.25
LDFGWIEVKAVP | < -0.25
LDFRF | < -0.25
LDGYLVPITVSLHSVLQLLS | < -0.25
LDIFISGDDSLLVCN | < -0.25
LDLSASQRLWRASGISFAFC | < -0.25
LDLSGERVRREAAI | < -0.25
LDNPHSRKSRL | < -0.25
LDP | < -0.25
LDPHHTLYHCYLDQHGSREH | < -0.25
LDPLLRVPGIVTVRVWPGRS | < -0.25
LDPPMSSTRFETEG | < -0.25
LDPPWPRNRAHPGFP | < -0.25
LDPRSGGEVYGLTQVAWGPP | < -0.25
LDQSCSTQRFLQVSI | < -0.25
LDR | < -0.25
LDREIIFGLNRTPWMLSAYE | < -0.25
LDRHGHSRLYGTSFVSAA | < -0.25

Substance | growth estimate
LDRLWQRARGRSYLHCLAQL | < -0.25
LDRQNRPDDFIAQQPDKHRK | < -0.25
LDSPHNVHYV | < -0.25
LDSRTSSGAIITGLSGWRPR | < -0.25
LDTAAWSLTTPNAPNG | < -0.25
LDTLSTRVSCHF | < -0.25
LDTVASWSRLLISLRIANAS | < -0.25
LDVETSIK | < -0.25
LDVRVCVMLRGRPCYTRFSC | < -0.25
LDVSRTL | < -0.25
LEAH | < -0.25
LEAR | < -0.25
LEEENARTFLSIAWCHAHS | < -0.25
LEEGPNWNSGLFVL | < -0.25
LEFGSSEPSSMKGSLTYNLD | < -0.25
LEFTLEGI | -0.246
LEGRIRPKLGPLAHDLSLAV | < -0.25
LEIMGN | < -0.25
LEIRQLRIYGTGTQGGIPKC | < -0.25
LEKFLCQDSK | < -0.25
LEKYSSLYVHLTSYWLRV | < -0.25
LELEFRCQYPSSLVMTRELW | < -0.25
LELFQAPSEVNDKTEQRIKR | < -0.25
LELRYWGER | < -0.25
LEMGCPWV | < -0.25

Substance | growth estimate
LEMIPKGSLIVANVRSGP | < -0.25
LENPA | < -0.25
LEPE | < -0.25
LEPIWH | < -0.25
LEPRPVMYYDRAFTASPLPT | < -0.25
LEPTKGASIHEAKVQAKLVC | < -0.25
LERHLKWQITAYPRGHPDII | < -0.25
LERLGLDQSVGAATLTL | < -0.25
LERYVLGEDKCIPEPDYV | < -0.25
LETCPYLGRRKTKSGRRGGF | < -0.25
LETGQVTRYAYRLSGTVSYA | < -0.25
LETN | < -0.25
LETVSAVTFVLT | < -0.25
LEVHGRFPIGSCGSIPFTVV | < -0.25
LEVNLGGLCAST | < -0.25
LEVVNWGAG | < -0.25
LFAQGCKCYGMCPGIVRGHP | < -0.25
LFASSA | < -0.25
LFAVAHGPKRTKL | < -0.25
LFDARVDCRVHHLL | < -0.25
LFEACRILYG | < -0.25
LFESVYNTK | -0.0736
LFFCQ | < -0.25
LFFFKQFPSTE | < -0.25
